Assay results from the supplement of paper PMC8728848.
The list shows a part of the results.

Experiments:
Assay in all cases: glycan array binding signal (z-score within array); higher = stronger binding
Details in all cases: glycan notation: IUPAC condensed, linker removed
[1] = molecular target: Gal(a1-4)Gal(b1-4)GlcNAc(b1-2)Man(a1-3)[Gal(a1-4)Gal(b1-4)GlcNAc(b1-2)Man(a1-6)]Man(b1-4)GlcNAc(b1-4)GlcNAc
Summary of the method: (§1)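 From the Consortium for Functional Glycomics database, 3228 arrays were curated, keeping only those whose protein sequence was available. Binding is given as a within-array Z-score averaged across arrays sharing a protein sequence and across linkers. Negative Z-scores can be read as non-binding.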

[2] = molecular target: Gal(a1-4)Gal(b1-4)GlcNAc(b1-3)Gal(b1-4)Glc
Summary of the method: as §1

Gal(a1-4)GlcNAc = molecular target: Gal(a1-4)GlcNAc
Summary of the method: as §1

Gal(a1-6)Glc = molecular target: Gal(a1-6)Glc
Summary of the method: as §1

Gal(b1-2)Gal = molecular target: Gal(b1-2)Gal
Summary of the method: as §1

Gal(b1-3)Gal = molecular target: Gal(b1-3)Gal
Summary of the method: as §1

Gal(b1-3)Gal(b1-4)GlcNAc = molecular target: Gal(b1-3)Gal(b1-4)GlcNAc
Summary of the method: as §1

[3] = molecular target: Gal(b1-3)Gal(b1-4)GlcNAc(b1-2)Man(a1-3)[Gal(b1-3)Gal(b1-4)GlcNAc(b1-2)Man(a1-6)]Man(b1-4)GlcNAc(b1-4)GlcNAc
Summary of the method: as §1

Gal(b1-3)GalNAc = molecular target: Gal(b1-3)GalNAc
Summary of the method: as §1

[4] = molecular target: Gal(b1-3)GalNAc(a1-3)[Fuc(a1-2)]Gal(b1-4)Glc
Summary of the method: as §1

[5] = molecular target: Gal(b1-3)GalNAc(a1-3)[Fuc(a1-2)]Gal(b1-4)GlcNAc
Summary of the method: as §1

Gal(b1-3)GalNAc(b1-3)Gal = molecular target: Gal(b1-3)GalNAc(b1-3)Gal
Summary of the method: as §1

[6] = molecular target: Gal(b1-3)GalNAc(b1-3)Gal(a1-4)Gal(b1-4)Glc
Summary of the method: as §1

[7] = molecular target: Gal(b1-3)GalNAc(b1-4)Gal(b1-4)Glc
Summary of the method: as §1

[8] = molecular target: Gal(b1-3)GalNAc(b1-4)[Neu5Ac(a2-3)]Gal(b1-4)Glc
Summary of the method: as §1

Gal(b1-3)GlcNAc = molecular target: Gal(b1-3)GlcNAc
Summary of the method: as §1

[9] = molecular target: Gal(b1-3)GlcNAc(a1-3)Gal(b1-4)GlcNAc
Summary of the method: as §1

[10] = molecular target: Gal(b1-3)GlcNAc(a1-6)Gal(b1-4)GlcNAc
Summary of the method: as §1

Gal(b1-3)GlcNAc(b1-2)Man = molecular target: Gal(b1-3)GlcNAc(b1-2)Man
Summary of the method: as §1

[11] = molecular target: Gal(b1-3)GlcNAc(b1-2)Man(a1-3)[Gal(b1-3)GlcNAc(b1-2)Man(a1-6)]Man(b1-4)GlcNAc(b1-4)GlcNAc
Summary of the method: as §1

[12] = molecular target: Gal(b1-3)GlcNAc(b1-2)Man(a1-3)[Gal(b1-3)GlcNAc(b1-2)Man(a1-6)]Man(b1-4)GlcNAc(b1-4)[Fuc(a1-6)]GlcNAc
Summary of the method: as §1

[13] = molecular target: Gal(b1-3)GlcNAc(b1-2)Man(a1-3)[GlcNAc(b1-4)][Gal(b1-3)GlcNAc(b1-2)Man(a1-6)]Man(b1-4)GlcNAc(b1-4)GlcNAc
Summary of the method: as §1

[14] = molecular target: Gal(b1-3)GlcNAc(b1-2)[Gal(b1-3)GlcNAc(b1-6)]Man(a1-6)[Gal(b1-3)GlcNAc(b1-2)Man(a1-3)]Man(b1-4)GlcNAc(b1-4)GlcNAc
Summary of the method: as §1

[15] = molecular target: Gal(b1-3)GlcNAc(b1-3)Gal(b1-3)GlcNAc
Summary of the method: as §1

[16] = molecular target: Gal(b1-3)GlcNAc(b1-3)Gal(b1-4)Glc
Summary of the method: as §1

[17] = molecular target: Gal(b1-3)GlcNAc(b1-3)Gal(b1-4)GlcNAc
Summary of the method: as §1

[18] = molecular target: Gal(b1-3)GlcNAc(b1-3)Gal(b1-4)GlcNAc(b1-2)Man(a1-3)[Gal(b1-3)GlcNAc(b1-3)Gal(b1-4)GlcNAc(b1-2)Man(a1-6)]Man(b1-4)GlcNAc(b1-4)GlcNAc
Summary of the method: as §1

[19] = molecular target: Gal(b1-3)GlcNAc(b1-3)Gal(b1-4)GlcNAc(b1-2)[Gal(b1-3)GlcNAc(b1-3)Gal(b1-4)GlcNAc(b1-6)]Man(a1-6)[Gal(b1-3)GlcNAc(b1-3)Gal(b1-4)GlcNAc(b1-2)Man(a1-3)]Man(b1-4)GlcNAc(b1-4)[Fuc(a1-6)]GlcNAc
Summary of the method: as §1

[20] = molecular target: Gal(b1-3)GlcNAc(b1-3)Gal(b1-4)GlcNAc(b1-3)Gal(b1-4)GlcNAc(b1-2)[Gal(b1-3)GlcNAc(b1-3)Gal(b1-4)GlcNAc(b1-3)Gal(b1-4)GlcNAc(b1-6)]Man(a1-6)[Gal(b1-3)GlcNAc(b1-3)Gal(b1-4)GlcNAc(b1-3)Gal(b1-4)GlcNAc(b1-2)Man(a1-3)]Man(b1-4)GlcNAc(b1-4)[Fuc(a1-6)]GlcNAc
Summary of the method: as §1

[21] = molecular target: Gal(b1-3)GlcNAc(b1-3)Gal(b1-4)GlcNAc(b1-6)[Gal(b1-3)GlcNAc(b1-3)]Gal(b1-4)Glc
Summary of the method: as §1

[22] = molecular target: Gal(b1-3)GlcNAc(b1-3)Gal(b1-4)[Fuc(a1-3)]GlcNAc
Summary of the method: as §1

[23] = molecular target: Gal(b1-3)GlcNAc(b1-3)Gal(b1-4)[Fuc(a1-3)]GlcNAc(b1-6)[Gal(b1-3)GlcNAc(b1-3)]Gal(b1-4)Glc
Summary of the method: as §1

[24] = molecular target: Gal(b1-3)GlcNAc(b1-3)GalNAc
Summary of the method: as §1

[25] = molecular target: Gal(b1-3)GlcNAc(b1-6)Gal(b1-4)GlcNAc
Summary of the method: as §1

[26] = molecular target: Gal(b1-3)GlcNAc(b1-6)GalNAc
Summary of the method: as §1

[27] = molecular target: Gal(b1-3)GlcNAc(b1-6)[Gal(b1-3)]GalNAc
Summary of the method: as §1

Gal(b1-3)GlcNAc6S = molecular target: Gal(b1-3)GlcNAc6S
Summary of the method: as §1

[28] = molecular target: Gal(b1-3)[Fuc(a1-4)]GlcNAc
Summary of the method: as §1

B1: LlpA1 (Pseudomonas fluorescens), Q4KHC3 (protein)
chain: MGSSHHHHHHSSGLVPRGSHMAWIRYDFTDNGSSVLPARYYMAPNQYLQSPNKRFKLLFQADGNLALYDGAQLAWVADQNTPFTNVSKGNKKDPMMVFMNYGFVLDDPLRGRIWSTTPSDPTMGSREDASLRAFTQVQDDGNIVTVDTIPHWYAPNGRVFTPAVGAAMIIGGTTELVPGQFYSAGEHSLVFQGDGNLVVYGPNSSVIWATYTQNKGGVRCVMQEDGNLVIYAANNGVVWQSGTGGHPGATIRLQANGSFTIVTERPVWARFGYTPTIKPPRVFYPDHKWKTGSYTWNNVF
- glycan array binding signal (z-score) [1]: 0.526
- glycan array binding signal (z-score) [2]: -0.766
- glycan array binding signal (z-score) (Gal(a1-4)GlcNAc): 0.66
- glycan array binding signal (z-score) (Gal(a1-6)Glc): 0.047
- glycan array binding signal (z-score) (Gal(b1-2)Gal): -0.134
- glycan array binding signal (z-score) (Gal(b1-3)Gal): -0.594
- glycan array binding signal (z-score) (Gal(b1-3)Gal(b1-4)GlcNAc): 0.306
- glycan array binding signal (z-score) [3]: 0.896
- glycan array binding signal (z-score) (Gal(b1-3)GalNAc): -0.091
- glycan array binding signal (z-score) [4]: -0.134
- glycan array binding signal (z-score) [5]: -0.567
- glycan array binding signal (z-score) (Gal(b1-3)GalNAc(b1-3)Gal): -0.423
- glycan array binding signal (z-score) [6]: -0.628
- glycan array binding signal (z-score) [7]: -0.392
- glycan array binding signal (z-score) [8]: -0.058
- glycan array binding signal (z-score) (Gal(b1-3)GlcNAc): -0.679
- glycan array binding signal (z-score) [9]: -0.638
- glycan array binding signal (z-score) [10]: 0.492
- glycan array binding signal (z-score) (Gal(b1-3)GlcNAc(b1-2)Man): -0.27
- glycan array binding signal (z-score) [11]: 0.473
- glycan array binding signal (z-score) [12]: 0.418
- glycan array binding signal (z-score) [13]: 1.38
- glycan array binding signal (z-score) [14]: 2.08
- glycan array binding signal (z-score) [15]: 0.085
- glycan array binding signal (z-score) [16]: -0.576
- glycan array binding signal (z-score) [17]: -0.593
- glycan array binding signal (z-score) [18]: 0.448
- glycan array binding signal (z-score) [19]: 0.631
- glycan array binding signal (z-score) [20]: 1.85
- glycan array binding signal (z-score) [21]: -0.524
- glycan array binding signal (z-score) [22]: -0.74
- glycan array binding signal (z-score) [23]: -0.162
- glycan array binding signal (z-score) [24]: -0.529
- glycan array binding signal (z-score) [25]: -0.035
- glycan array binding signal (z-score) [26]: 0.456
- glycan array binding signal (z-score) [27]: 0.763
- glycan array binding signal (z-score) (Gal(b1-3)GlcNAc6S): -0.168
- glycan array binding signal (z-score) [28]: -0.2
